This is one part of the list. Shown are side measurements of this screen, not its main read-out; they come without a call. Most of these compounds were active or inconclusive in the main read-out, so they are no random draw. The note in brackets gives the kind of curve behind each potency; many fits are weak.
Test: qHTS Assay for Modulators of Lamin A Splicing
Conditions: HeLa LMNA splicing GFP/RFP minigene ratio, 48 h
How it was run: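 Read-out is the ratio of GFP to DsRed2 object intensity, acquired by 488 nm laser-scanning cytometry on HeLa lamin A-EGFP minigene reporter cells. Compound incubation 48 hrs at 37 °C in Opti-MEM with 2% FBS; DMSO 0.5% final.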

[1] = measured here: GFP splicing reporter channel
[2] = measured here: RFP viability control channel

SMILES | AC50 [1] | AC50 [2]
COc1ccc(Oc2ncc3nc(-c4cccc(C#N)c4)c(=O)n(CCC#N)c3n2)cc1 | 15.8 µM [falling, single point] | –
Cc1noc(C)c1S(=O)(=O)Nc1ccc(C(=O)N2CCN(c3ccc(Cl)cc3)CC2)cc1 | 3.98 µM [rising, full curve] | 8.91 µM [rising, partial curve]
O=C(CCNC(=O)Cn1ccc2ccccc2c1=O)NCC1CCCC1c1ccccc1 (stereo not given) | 28.2 µM [rising, partial curve, poor fit] | 11.2 µM [rising, partial curve, poor fit]
Cc1cccc(C)c1NC(=O)N1CC=C(n2c(=O)[nH]c3ccccc32)CC1 | 3.98 µM [falling, full curve, poor fit] | 6.31 µM [falling, single point]
CN(C)Cc1ccccc1-c1nc(N(C)C)c2ccccc2n1 | 35.5 µM [falling, single point] | –
CN=c1nc(-c2ccccc2)n(-c2ccccc2)s1 | 35.5 µM [falling, partial curve, poor fit] | 15.8 µM [falling, partial curve]
COc1ccc(Cl)cc1NC(=O)CSc1nnc(Cc2cccn2C)n1-c1ccc(F)cc1 | – | 10 µM [rising, partial curve, poor fit]
COc1ccc(Cl)cc1NC(=O)C(C)N(C)Cc1ccc(C(F)(F)F)cc1 (stereo not given) | – | 35.5 µM [rising, single point]
CC1CCc2nc(NC(=O)CN3CCN(c4ccccc4)CC3)sc2C1 (stereo not given) | – | 22.4 µM [rising, single point]
O=C(c1cccc(C(=O)N2CCN(c3ccccc3)CC2)c1)N1CCN(c2ccccc2)CC1 | – | 14.1 µM [rising, single point]
CC1(c2ccccc2)NC(=O)N(Cc2ccc([N+](=O)[O-])cc2)C1=O (stereo not given) | 3.55 µM [rising, single point] | 7.94 µM [rising, partial curve, poor fit]
NN/C(=C\[N+](=O)[O-])Nc1ccc(Cl)cc1 | 35.5 µM [falling, single point] | –
Cc1ccc(C(C(=O)NCc2ccccc2)N(Cc2cccs2)C(=O)c2ccc3c(c2)OCCO3)cc1 (stereo not given) | 35.5 µM [rising, single point] | 20 µM [rising, partial curve, poor fit]
CC(Sc1cccc[n+]1[O-])C(=O)Nc1cccc(S(=O)(=O)N2CCOCC2)c1 (stereo not given) | – | 0.0562 µM [rising, full curve, poor fit]

Reference: PubChem BioAssay AID1487 (National Center for Advancing Translational Sciences (NCATS), 2009)
